In patent publication US20190330338A1 (UNIVERSITY OF UTAH RESEARCH FOUNDATION, published 2019):
Substitutions are numbered along the chain they refer to. No constants are given. Whether binding was seen depends on the method and setting. Some results given as binding are weak or reduced against the parent protein; the word gives no strength.

T1: recombinant CD229 (human) (UniProt Q9HBG7)
T1 sequence (looked up): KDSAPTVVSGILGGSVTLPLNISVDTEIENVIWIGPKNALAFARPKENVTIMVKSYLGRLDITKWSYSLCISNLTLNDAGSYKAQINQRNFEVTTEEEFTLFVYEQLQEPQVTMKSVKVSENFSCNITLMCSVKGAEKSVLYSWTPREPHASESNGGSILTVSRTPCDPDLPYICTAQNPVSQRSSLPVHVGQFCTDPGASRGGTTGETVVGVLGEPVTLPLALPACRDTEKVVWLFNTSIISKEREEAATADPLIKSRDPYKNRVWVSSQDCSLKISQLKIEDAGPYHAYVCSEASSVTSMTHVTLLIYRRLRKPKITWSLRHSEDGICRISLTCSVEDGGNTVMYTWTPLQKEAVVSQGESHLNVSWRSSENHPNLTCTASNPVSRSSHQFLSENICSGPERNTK

B1: anti-CD229 CAR construct, Clone 1D1 (protein, not shown: large carriers)
chain: EVQLVQSGAEVKKPGASVKVSCKASGYTFTSYGISWVRQAPGQGLEWMGWISAYNGNTNYAQKLQGRVTMTTDTSTSTAYMELRSLRSDDTTVYYCARSPSTVVTPFSDYWGQGTLVTVSSLEGGGGSGGGGSGGGASNFMLTQPHSVSESPGKTVTISCTGSSGSIASNYVQWYQQRPGSSPTTVIYEDNQRPSGVPDRFSGSIDSSSNSASLTISGLKTEDEADYYCQSYDGSNPVVFGGGTQLTVLG
B2: anti-CD229 CAR construct, Clone 1B11 (protein, not shown: large carriers)
chain: QMQLVESGAEVKKPGSSVKVSCKASGGTFSSYAISWVRQAPGQGLEWMGGIIPIFGTANYAQKFQGRVTITADKSTSTAYMELSSLRSEDTAVYYCAADMELRDYYYGMDVWGQGTLVTVSSLEGGGGSGGGGSGGGASQSGLTQPRSVSGSPGQSVTISCTGTSSDVGGYNYVSWYQQHPGKAPKLMIYDVSKRPSGVPDRFSGSKSGNTASLTVSGLQAEDEADYYCSSYAGSNTFVFGSGTKLTVLG
B3: anti-CD229 CAR construct, Clone 1E12 (protein, not shown: large carriers)
chain: QITLKESGPTLVKPTQTLTLTCTFSGFSLSTSGVGVGWIRQPPGKALEWLALIYWNDDKRYSPSLKSRLTITKDTSKNQVVLTMTNMDPVDTATYYCAHISSSGGTEVQDYWGQGTLVTVSSLEGGGGSGGGGSGGGASDIQMTQSPSSLSASVGDRVTITCRASQSIGSSLHWYQQKPGKAPKFLIYDASSLESGVPSRFSGSGSGTEFTLTISSLQPDDCATYYCQQYNSYPLTFGGGTKLEIKR
B4: anti-CD229 CAR construct, Clone 2E1 (protein, not shown: large carriers)
chain: QITLKESGPTLVKPTQTLTLTCTFSGFSLSTSGVGVGWIRQPPGKALEWLALIYWNDDKRYSPSLKSRLTITKDTSKNQVVLTMTNMDPVDTATYYCAQAKPYSSDFDIWGQGTMVTVSSLEGGGGSGGGGSGGGASDIQMTQSPSSLSASVGDRVTISCQASQDISNYLNWYQQKPGKAPKLLIYAASSLQSGVPSRFSGSGSGTDFTLTISSLQPEDFATYYCLQDYNYPWTFGQGTKVEIKR
B5: anti-CD229 CAR construct, Clone 1E10 (protein, not shown: large carriers)
chain: QVQLVESGAEVKKPGASVKVSCKASGYTFTAYYIHWLRQAPGQDLEWMGWIDPNSGGTNYAQKFQGRVTMTRDTSISTAYMELSRLRSDDTAVYYCARDWNYELDYWGQGTLVTVSSLEGGGGSGGGGSGGGASNFMLTQPHSVSGSPGKTVTISCTRSSGYIASNYVQWYQQRPGSSPTTLIYDDDQRPSGVPDRFSGSIDRSSNSASLTISGLKTEDEGDYYCQSYDSSLVIFGGGTKVTVLG
B6: anti-CD229 CAR construct, Clone 2C11 (protein, not shown: large carriers)
chain: B5 chain with S231T, L232T, V233E, I234V, G237T, V241L
B7: anti-CD229 CAR construct, Clone 1E4 (protein, not shown: large carriers)
chain: QVQLVESGAEVKKPGASVKVSCKASGYTFTAYYIHWLRQAPGQDLEWMGWIDPNSGGTNYAQKFQGRVTMTRDTSISTAYMELSRLRSDDTAVYYCARGWNYELDYWGQGTLVTVSSLEGGGGSGGGGSGGGASNFMLTQPHSVSGSPGKTVTISCTRSSGYIASNYVQWYQQRPGSAPTTVIYEDNQRPSGVPDRFSGSIDSSSNSASLTISGLKTEDEADYYCQSYDSSNQGVFGGGTKLTVLV
B8: anti-CD229 CAR construct, Clone 1C8 (protein, not shown: large carriers)
chain: QVQLLESGGGVAQPGRSLKLSCAASGFTFSSYGMHWVRQAPGEGLEWVAVISYDGSNKYYADSVKGRFTISRDNSKNTLYLQMNSLRAEDTAVYYCAKDTCTNGVCYPDYWGQGTLVTVSSLEGGGGSGGGGSGGGASDIVMTQSPATLSVSPGERATLSCRASQSVGSSLAWYQQKPGQAPRLLIYGGSVRATGIPARFSGSGSGTEFTLTISSLQSEDFAAYYCQQYNSYPLTFGGGTKLEIKR
B9: anti-CD229 CAR construct, Clone 2D1 (protein, not shown: large carriers)
chain: QITLKESGPTLVKPTQTLTLTCTFSGFSLSTSGVGVGWIRQPPGKALEWLALIYWNDDKRYSPSLKSRLTITKDTSKNQVVLTMTNMDPVDTATYYCAQAKPYSSDFDIWGQGTMVTVSSLEGGGGSGGGGSGGGASNFMLTQPHSVSESPGKTVTISCTGSSGSIASNYVQWYQQRPGSSPTTVIYEDNQRPSGVPDRFSGSIDSSSNSASLTISGLKTEDEADYYCQSYDSSNQGVFGGGTQLTVLG
B10: anti-CD229 CAR construct, Clone 2C5 (protein, not shown: large carriers)
chain: QVQLVESGAEVKKPGASVKVSCKASGYTFTAYYIHWLRQAPGQDLEWMGWIDPNSGGTNYAQKFQGRVTMTRDTSISTAYMELSRLRSDDTAVYYCARDWNYELDYWGRGTLVTVSPLEGGGGSGGGGSGGGASNFMLTQPHSVSGSPGKAVTISCTRSSGNIARSFVQWYQQRPGSAPTAVIYEDNRRPSGVPDRFSGSFDSSSNSASLTISGLKTEDEADYYCQSYDSSNHVVFGGGTKVTVLG

Target: T1, recombinant CD229 (human)
Test: flow cytometry of 293T cells expressing the CAR, stained with APC-labeled recombinant CD229

binding | Binder
binds | B1
binds | B2
binds | B3
binds | B4
binds | B5
binds | B6
binds | B7
binds | B8
binds | B9
binds | B10
